Among the data in paper PMC2832016 are binding values, retold here.

No constants are given. Whether binding was seen depends on the method and setting. Binding seen in cells or lysates may run through a third protein. Binding calls can cover weak binding; strength is not graded here.

For experiment [1], the target named is GST-Scyl1Δ10 (full-length Scyl1 lacking the last 10 amino acids). As to the kind of experiment: pull-down; GST-Scyl1 fusion proteins pre-coupled to glutathione-Sepharose beads, incubated 3 h at 4°C with 1 ml rat liver extract (1 mg/ml; 10 mM HEPES pH 7.4, 1% Triton X-100, 50 mM NaCl); washed 3 times; Western blot; only the target purified. In general terms: In western blotting, separated proteins are transferred to a membrane and probed.

Experiment [2] has as its target GST-tagged isolated C-terminal region of Scyl1. The experiment is described as above.

B1: 58K/formiminotransferase cyclodeaminase (FTCD) (protein, UniProt O88618 1-541)
chain: MSQLVECVPNFSEGNNQEVIDAISQAISQTPGCVLLDVDAGPSTNRTVYTFVGQPECVVEGALSAARTASQLIDMRKHKGEHPRMGALDVCPFIPVRGVSMDECVLCAKAFGQRLAEELNVPVYLYGEAAQMPSRQTLPAIRAGEYEALPEKLKQAEWVPDFGPSSFVPSWGATVTGARKFLIAFNINLLSTKEQAHRIALNLREQGRGKDQPGRLKKVQGIGWYLEEKNLAQVSTNLLDFEVTALHTVYEEARREAQELNLPVVGSQLVGLVPLKALLDAAAFYCDKEKLFVLEEEHRIRLVVNRLGLDSLAPFDPKERIIEYLVPDSGPEQSLLDASLRAFVREVGARSAAPGGGSVAAAVAALGAALASMVGQMTYGRRQFDHLDSTMRRLIPPFHAASAQLTSLVDADARAFAACLGAIKLPKNTPEERDRRTCALQEGLRQAVAVPLKLAETVSQLWPALQELAQCGNLSCLSDLQVAAKALETGVFGAYFNVLINLKDMTDDVFKEKTRHRISSLLQEAKTQAALVLGSLEARKE
As to B1, the binding entry in experiment [1] and in experiment [2] was “binds” in each case.
